Values joined by “and” are separate entries in the source; they are usually repeats but may differ in a detail not shown here. Identical values can stand only once. Hit rate of the full screen: of about 310,000 compounds, about 17,000 (5.5%) were called active. Inconclusive results, whose numbers are uncertain, are shown with a selection of clear calls. Calls follow the shape of the dose curve; as a rule, active = well fitted inhibition curve with a large enough effect; inconclusive = small, poorly fitted or top-dose-only effect, or effect the other way; inactive = no such curve, though single readings can be large or run the other way. Potencies beside an inconclusive call are fits to weak or partial responses and may not hold up.
What follows are compounds tested against Nuclear receptor ROR-gamma (Mus musculus) (UniProt P51450) (assay: qHTS for inhibitors of ROR gamma transcriptional activity). Conditions: Drosophila S2 Gal4-RORgamma UAS-luciferase reporter, 20 h; activity change, negative = inhibition: at 53.6 µM (top of the series).
Summary of the method: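 Compounds are pin-transferred onto Drosophila Schneider cells expressing a copper-inducible Gal4–ROR gamma transactivation domain fusion. After 1 hr, copper sulfate is added to 700 uM final; luciferase is read 20 hr later.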
% is scaled to controls: 0 for no effect and ±100 for the full control effect; potency is read from the fitted curve at half-maximal effect.
Also: nearly all actives have a fitted effect of over 60% in size.

By UniProt entry, the sequences of proteins in these tests, tags left out. Where a name states a change or a piece, a line headed by the entry shows the natural chain unless it says otherwise.
UniProt P51450: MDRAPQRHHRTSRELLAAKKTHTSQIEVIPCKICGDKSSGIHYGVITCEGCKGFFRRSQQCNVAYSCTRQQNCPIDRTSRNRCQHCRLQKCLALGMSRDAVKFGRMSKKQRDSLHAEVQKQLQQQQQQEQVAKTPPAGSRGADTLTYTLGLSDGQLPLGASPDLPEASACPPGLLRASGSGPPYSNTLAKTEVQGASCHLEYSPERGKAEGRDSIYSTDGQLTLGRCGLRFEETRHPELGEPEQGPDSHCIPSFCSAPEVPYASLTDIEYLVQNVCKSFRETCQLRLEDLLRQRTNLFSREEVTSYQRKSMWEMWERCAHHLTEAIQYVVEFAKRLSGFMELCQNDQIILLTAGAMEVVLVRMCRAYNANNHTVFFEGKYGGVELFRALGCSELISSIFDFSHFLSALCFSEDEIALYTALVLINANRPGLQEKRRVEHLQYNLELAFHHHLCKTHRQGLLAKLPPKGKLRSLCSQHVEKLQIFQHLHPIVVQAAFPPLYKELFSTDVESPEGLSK

Potency, active:
CNC[C@@H](CC1CCCCC1)NC[C@H](CC(C)C)NCCc1cccc(C(F)(F)F)c1 11.2 µM
Brc1ccc(N=Nc2ccc3ccccc3n2)cc1 0.112 µM
CCOC(=O)N1CCN(C(=O)c2ccc3c(=O)n(Cc4ccccc4)c(=S)[nH]c3c2)CC1 12.6 µM
Oc1ccc(Cl)c2cccnc12 2.51 µM and 1.78 µM
NC(=S)N/N=C1\CC(n2nnnc2-c2ccccc2Cl)C2COC1O2 (stereo not given) 11.2 µM
Cc1cc(C)n(S(=O)(=O)/C=C/c2ccccc2)n1 15.8 µM
Cc1cc(C)nc(NC(=S)Nc2cccc(F)c2)c1 1.78 µM
CC(C)NC(=O)c1ccc2c(=O)n(C3CCCC3)c(=S)[nH]c2c1 0.1 µM
Brc1cc2c(cc1/C=N/Nc1nc3ccccc3s1)OCO2 4.47 µM
Cc1nn(C)c(C(=O)NC(=S)Nc2ccccc2Br)c1Cl 8.91 µM
COc1cc(/C=C\C(=O)N2CCC=CC2=O)cc(OC)c1OC 5.01 µM
CCc1nc(N2CCCCC2)c2oc3ccccc3c2n1 15.8 µM
CC1(C(=O)NC(=S)NNC(=O)c2ccncc2)CCCCC1 5.01 µM
Cn1c(CNC(=O)c2ccco2)nnc1SCC(=O)c1ccccc1 28.2 µM
S=C(N/N=C/c1ccc(Cl)cc1)N1CCOCC1 0.355 µM
CCc1nnc(NC(=O)c2ccc(S(=O)(=O)N(C)Cc3ccccc3)cc2)o1 0.126 µM

Potency, inconclusive:
CN(C)S(=O)(=O)N1CCN(c2ccc(Cl)cc2)CC1 12.6 µM [activator, partial curve]
CSc1ccc(NC(=O)Nc2cccn(Cc3ccccc3)c2=O)cc1 17.8 µM [inhibitor, partial curve, poor fit]
CN(C(=O)c1ccc2c(=O)n3c(nc2c1)CCCCC3)c1cccc(Cl)c1 1.58 µM [activator, full curve, poor fit]
O=C(NCc1n[nH]c(=S)n1-c1ccc(Cl)c(Cl)c1)c1ccco1 15.8 µM [inhibitor, partial curve]
O=C(N/N=C/c1cccc([N+](=O)[O-])c1)C1CC(=O)N(c2ccc(Br)cc2)C1 (stereo not given) 31.6 µM [activator, single point]
Cc1cccc(C)c1NC(=O)C(C)Sc1n[nH]c(-c2ccncc2)n1 (stereo not given) 0.794 µM [inhibitor, single point]
Cn1cc(Br)c(C(=O)Nc2nccs2)n1 35.5 µM [inhibitor, single point]
CCC1CCCCN1Cc1nc2c(c(=O)n(C)c(=O)n2C)n1CCC(C)C (stereo not given) 0.0251 µM [activator, full curve]
Cc1ccc(C(=O)N(Cc2ccc3c(c2)OCO3)Cc2nc3ccccc3c(=O)[nH]2)cc1 35.5 µM [inhibitor, single point]
CCOC(=O)c1ccc(NC(=O)CSc2n[nH]c(-c3ccncc3)n2)cc1 35.5 µM [activator, single point]
Clc1ccc(-c2cn3cccnc3n2)cc1Cl 1.58 µM [activator, partial curve]
COc1ccc(CNc2ccc([N+](=O)[O-])cn2)cc1 1 µM [activator, partial curve]
COc1cc(-c2nnc(NC(=O)c3ccc(S(=O)(=O)N4CCOCC4)cc3)o2)cc(OC)c1OC 2.82 µM [inhibitor, single point]
CCOc1cc2[nH]c(=O)n(Cc3ccc(C(=O)NCCOC)cc3)c(=O)c2cc1OCC 0.224 µM [activator, full curve, poor fit]
CN(C)c1ccc(C(=O)NCCCSc2ccccc2)cc1 7.94 µM [activator, partial curve]
CC(C)c1ccc(CN2C(=O)c3ccccc3S2(=O)=O)cc1 14.1 µM [activator, single point]
CN(Cc1ccc(Br)cc1)CC(O)COc1cccc(Br)c1 (stereo not given) 17.8 µM [inhibitor, single point]
COc1cccc(C(=O)NN2C(=S)N(c3ccccc3)C(=O)C2CC(N)=O)c1 (stereo not given) 12.6 µM [inhibitor, single point]
O=C(/C=C/c1ccc(Cl)cc1)NC(=S)Nc1ccc(N2CCOCC2)c(Cl)c1 7.08 µM [inhibitor, partial curve, poor fit]
COc1ccc(NC(=O)c2ccc3c(=O)n(Cc4ccco4)c(=S)[nH]c3c2)c(OC)c1 2.82 µM [inhibitor, full curve, poor fit]
Cc1ccc([N+](=O)[O-])cc1S(=O)(=O)NCCc1c(C)[nH]c2c(C)cccc12 35.5 µM [activator, single point]
O=C(NCCCN1CCN(c2ccccc2F)CC1)C1CCN(S(=O)(=O)c2cccs2)CC1 0.224 µM [activator, partial curve, poor fit]
CCSc1nnc(Nc2ccccc2)s1 5.01 µM [activator, single point]
O=C(Nc1nnc(SCC(=O)N2CCCc3ccccc32)s1)c1cccc2ccccc12 14.1 µM [activator, single point]
Cc1ccc(C(C)C)c(OCCNC(=O)c2cncc(Br)c2)c1 12.6 µM [activator, partial curve, poor fit]
Cc1ccc(NC(=O)CN2CCN(c3ccccn3)CC2)c(Cl)c1 22.4 µM [activator, single point]
CC(C)CCNC(=O)COc1ccc(C(=O)c2ccccc2)cc1 2.82 µM [activator, full curve, poor fit]
COC(=O)Cn1c(C(F)(F)F)nc2ccccc21 0.562 µM [activator, single point]
C/C(=N\N1CCN(Cc2ccc(Cl)cc2)CC1)c1ccc([N+](=O)[O-])cc1 35.5 µM [activator, single point]
Cc1ccc(-c2noc(CNc3ccccc3)n2)cc1 1.78 µM [activator, partial curve]
Nc1nnc(SCc2ccc(Cl)cc2)s1 14.1 µM [activator, partial curve]
OCCC1CN(Cc2nc(-c3ccc(F)cc3)cs2)CCN1CCc1ccccc1 (stereo not given) 20 µM [activator, single point]
S=C(NCCN1CCOCC1)N/N=C/c1c2ccccc2cc2ccccc12 35.5 µM [inhibitor, single point]
Cc1noc(C)c1COC(=O)COc1ccc2c(C)cc(=O)oc2c1 35.5 µM [inhibitor, single point]

Activity change, negative = inhibition, inactive:
CC(C)N1CCN(Cc2ccc3nsnc3c2)CC1CCO (stereo not given) 22.5%
CCCCCCCNC(=O)C1(CC2CC(c3ccc(Cl)cc3)=NO2)CCN(C(=O)OC(C)(C)C)CC1 (stereo not given) 38.1%
NC(=O)NC(=O)COC(=O)/C=C/c1cccs1 8.01%
N#CCCN1CCN(CCC#N)CC1 -7.19%
CCOc1ccc(C2C(C#N)=C(N)Oc3nc[nH]c(=O)c32)cc1 (stereo not given) -12.9%
COc1cc(OC)cc(C(=O)NCc2n[nH]c(=S)n2-c2ccccc2OC)c1 15.1%
COc1ccc(CC(=O)OCc2cc3ccccc3[nH]c2=O)cc1 -31.2%
O=C1CN2NC(=S)N(c3ccc(Cl)cc3)C2=CN1c1ccc(Cl)cc1 -10.3%
CCCOc1ccc(C(=O)N2CCN(Cc3ccc4c(c3)OCO4)CC2)cc1 -18.1%
O=C(CCCC(=O)NCCc1ccccc1)NCCc1ccccc1 -19.9%
CCOCc1c(C(=O)NC2CCCCCC2)oc2ccccc12 37.9%
COc1ccc(C(=O)CSc2nnn(-c3cccc(NC(C)=O)c3)n2)cc1 21%
CC(=O)Nc1ccc(Nc2cc(-c3ccccc3)nc3ncnn23)cc1 -15%
c1ccc2nc3ccccc3nc2c1 21%
O=C(CNC(=O)c1ccc(Cl)cc1)OC1CCOC1=O (stereo not given) -3.93%
O=C(NCc1ccccc1Cl)C(=O)NCC1OCCN1S(=O)(=O)c1cccs1 (stereo not given) 28.4%
CC(=O)C1=C(O)C(=O)N(c2cccc(Br)c2)C1c1ccccc1Cl (stereo not given) 26.2%
COc1c(O)c(O)c2cc(OC)c3c(OC)cc(=O)c4c5c(=O)c(OC)c(C(C)=O)c6c5c(c1CC=6C)c2c34 5.25%
CC(C(=O)O)n1nnc2ccccc21 (stereo not given) 1.36%
O=Cc1cnc2ccccc2c1-c1ccccc1 17.3%
COc1ccccc1NC(=O)C1=C(C)N(c2ccccc2)C(=S)NC1c1cccc(C(F)(F)F)c1 (stereo not given) -23.9%
O=C1CN(C(=O)c2ccccc2Br)C(c2ccc(F)cc2)c2cc(F)ccc2N1 (stereo not given) 16.7%
CCCCCOC(=O)CSc1nc2c(c(=O)[nH]c(=O)n2C)n1CCc1ccccc1 -7.33% [at 0.365 µM]
Cc1nn(CCCC(=O)NCc2ccccc2Cl)c(=O)c2nccn12 -3.79%
O=C(CCN1C(=O)/C(=C/c2ccccc2)SC1=S)NCCCN1CCOCC1 24.4%
CCOc1cc(S(=O)(=O)Nc2cc(C)cc(C)c2)ccc1Cl 5.67%
COc1cc(Cl)ccc1OCc1cc(C(=O)NCC(C)c2ccccc2)no1 (stereo not given) 15.3%
COc1ccccc1C1CC(c2cccs2)=Nc2ccccc2S1 (stereo not given) 29.2%
CC(C)N=C(NC#N)SCc1ccccc1F 22.7%
COc1ccc(C=O)cc1COc1ccccc1F -11.8%

Reference: PubChem BioAssay AID2551 (National Center for Advancing Translational Sciences (NCATS), 2010)
